The target in the assay is GST fusion protein containing NEDD4 HECT domain (UniProt P46934). Put plainly: pull-down; GST or GST-fusion proteins bound to Glutathione-Sepharose beads incubated with recombinant MBP-PINCH-1 at 4°C overnight; washed 3 times with PBS containing 1% Triton X-100; WB with anti-His Ab; both purified.

Protein sequences, listed by entry. Tags and fused reporters are not part of them.
UniProt P48059: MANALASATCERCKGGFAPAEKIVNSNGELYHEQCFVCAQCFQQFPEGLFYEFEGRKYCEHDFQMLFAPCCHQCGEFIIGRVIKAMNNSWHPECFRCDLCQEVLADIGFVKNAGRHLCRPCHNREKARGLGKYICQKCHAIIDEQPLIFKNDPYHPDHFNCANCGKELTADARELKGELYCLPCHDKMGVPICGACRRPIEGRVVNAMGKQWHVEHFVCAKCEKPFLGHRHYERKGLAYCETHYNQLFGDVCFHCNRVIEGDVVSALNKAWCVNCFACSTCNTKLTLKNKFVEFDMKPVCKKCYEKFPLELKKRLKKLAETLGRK

No constants are given. Whether binding was seen depends on the method and setting.

Take “maltose binding protein (MBP)-His-tagged PINCH-1 protein (from UniProt P48059 1-325)”: the binding entry is reported as “no binding”.
